According to paper PMC7363861:
Results are given in words; binding and its absence hold for the method and conditions named. For some assays here: In cells and extracts the contact can be indirect. Some binding calls cover weakened binding; strength is not graded here.

The chains behind the UniProt entries cited, without tags or fusion partners. Residues count along the entry.
UniProt Q07954, residues 20-4544: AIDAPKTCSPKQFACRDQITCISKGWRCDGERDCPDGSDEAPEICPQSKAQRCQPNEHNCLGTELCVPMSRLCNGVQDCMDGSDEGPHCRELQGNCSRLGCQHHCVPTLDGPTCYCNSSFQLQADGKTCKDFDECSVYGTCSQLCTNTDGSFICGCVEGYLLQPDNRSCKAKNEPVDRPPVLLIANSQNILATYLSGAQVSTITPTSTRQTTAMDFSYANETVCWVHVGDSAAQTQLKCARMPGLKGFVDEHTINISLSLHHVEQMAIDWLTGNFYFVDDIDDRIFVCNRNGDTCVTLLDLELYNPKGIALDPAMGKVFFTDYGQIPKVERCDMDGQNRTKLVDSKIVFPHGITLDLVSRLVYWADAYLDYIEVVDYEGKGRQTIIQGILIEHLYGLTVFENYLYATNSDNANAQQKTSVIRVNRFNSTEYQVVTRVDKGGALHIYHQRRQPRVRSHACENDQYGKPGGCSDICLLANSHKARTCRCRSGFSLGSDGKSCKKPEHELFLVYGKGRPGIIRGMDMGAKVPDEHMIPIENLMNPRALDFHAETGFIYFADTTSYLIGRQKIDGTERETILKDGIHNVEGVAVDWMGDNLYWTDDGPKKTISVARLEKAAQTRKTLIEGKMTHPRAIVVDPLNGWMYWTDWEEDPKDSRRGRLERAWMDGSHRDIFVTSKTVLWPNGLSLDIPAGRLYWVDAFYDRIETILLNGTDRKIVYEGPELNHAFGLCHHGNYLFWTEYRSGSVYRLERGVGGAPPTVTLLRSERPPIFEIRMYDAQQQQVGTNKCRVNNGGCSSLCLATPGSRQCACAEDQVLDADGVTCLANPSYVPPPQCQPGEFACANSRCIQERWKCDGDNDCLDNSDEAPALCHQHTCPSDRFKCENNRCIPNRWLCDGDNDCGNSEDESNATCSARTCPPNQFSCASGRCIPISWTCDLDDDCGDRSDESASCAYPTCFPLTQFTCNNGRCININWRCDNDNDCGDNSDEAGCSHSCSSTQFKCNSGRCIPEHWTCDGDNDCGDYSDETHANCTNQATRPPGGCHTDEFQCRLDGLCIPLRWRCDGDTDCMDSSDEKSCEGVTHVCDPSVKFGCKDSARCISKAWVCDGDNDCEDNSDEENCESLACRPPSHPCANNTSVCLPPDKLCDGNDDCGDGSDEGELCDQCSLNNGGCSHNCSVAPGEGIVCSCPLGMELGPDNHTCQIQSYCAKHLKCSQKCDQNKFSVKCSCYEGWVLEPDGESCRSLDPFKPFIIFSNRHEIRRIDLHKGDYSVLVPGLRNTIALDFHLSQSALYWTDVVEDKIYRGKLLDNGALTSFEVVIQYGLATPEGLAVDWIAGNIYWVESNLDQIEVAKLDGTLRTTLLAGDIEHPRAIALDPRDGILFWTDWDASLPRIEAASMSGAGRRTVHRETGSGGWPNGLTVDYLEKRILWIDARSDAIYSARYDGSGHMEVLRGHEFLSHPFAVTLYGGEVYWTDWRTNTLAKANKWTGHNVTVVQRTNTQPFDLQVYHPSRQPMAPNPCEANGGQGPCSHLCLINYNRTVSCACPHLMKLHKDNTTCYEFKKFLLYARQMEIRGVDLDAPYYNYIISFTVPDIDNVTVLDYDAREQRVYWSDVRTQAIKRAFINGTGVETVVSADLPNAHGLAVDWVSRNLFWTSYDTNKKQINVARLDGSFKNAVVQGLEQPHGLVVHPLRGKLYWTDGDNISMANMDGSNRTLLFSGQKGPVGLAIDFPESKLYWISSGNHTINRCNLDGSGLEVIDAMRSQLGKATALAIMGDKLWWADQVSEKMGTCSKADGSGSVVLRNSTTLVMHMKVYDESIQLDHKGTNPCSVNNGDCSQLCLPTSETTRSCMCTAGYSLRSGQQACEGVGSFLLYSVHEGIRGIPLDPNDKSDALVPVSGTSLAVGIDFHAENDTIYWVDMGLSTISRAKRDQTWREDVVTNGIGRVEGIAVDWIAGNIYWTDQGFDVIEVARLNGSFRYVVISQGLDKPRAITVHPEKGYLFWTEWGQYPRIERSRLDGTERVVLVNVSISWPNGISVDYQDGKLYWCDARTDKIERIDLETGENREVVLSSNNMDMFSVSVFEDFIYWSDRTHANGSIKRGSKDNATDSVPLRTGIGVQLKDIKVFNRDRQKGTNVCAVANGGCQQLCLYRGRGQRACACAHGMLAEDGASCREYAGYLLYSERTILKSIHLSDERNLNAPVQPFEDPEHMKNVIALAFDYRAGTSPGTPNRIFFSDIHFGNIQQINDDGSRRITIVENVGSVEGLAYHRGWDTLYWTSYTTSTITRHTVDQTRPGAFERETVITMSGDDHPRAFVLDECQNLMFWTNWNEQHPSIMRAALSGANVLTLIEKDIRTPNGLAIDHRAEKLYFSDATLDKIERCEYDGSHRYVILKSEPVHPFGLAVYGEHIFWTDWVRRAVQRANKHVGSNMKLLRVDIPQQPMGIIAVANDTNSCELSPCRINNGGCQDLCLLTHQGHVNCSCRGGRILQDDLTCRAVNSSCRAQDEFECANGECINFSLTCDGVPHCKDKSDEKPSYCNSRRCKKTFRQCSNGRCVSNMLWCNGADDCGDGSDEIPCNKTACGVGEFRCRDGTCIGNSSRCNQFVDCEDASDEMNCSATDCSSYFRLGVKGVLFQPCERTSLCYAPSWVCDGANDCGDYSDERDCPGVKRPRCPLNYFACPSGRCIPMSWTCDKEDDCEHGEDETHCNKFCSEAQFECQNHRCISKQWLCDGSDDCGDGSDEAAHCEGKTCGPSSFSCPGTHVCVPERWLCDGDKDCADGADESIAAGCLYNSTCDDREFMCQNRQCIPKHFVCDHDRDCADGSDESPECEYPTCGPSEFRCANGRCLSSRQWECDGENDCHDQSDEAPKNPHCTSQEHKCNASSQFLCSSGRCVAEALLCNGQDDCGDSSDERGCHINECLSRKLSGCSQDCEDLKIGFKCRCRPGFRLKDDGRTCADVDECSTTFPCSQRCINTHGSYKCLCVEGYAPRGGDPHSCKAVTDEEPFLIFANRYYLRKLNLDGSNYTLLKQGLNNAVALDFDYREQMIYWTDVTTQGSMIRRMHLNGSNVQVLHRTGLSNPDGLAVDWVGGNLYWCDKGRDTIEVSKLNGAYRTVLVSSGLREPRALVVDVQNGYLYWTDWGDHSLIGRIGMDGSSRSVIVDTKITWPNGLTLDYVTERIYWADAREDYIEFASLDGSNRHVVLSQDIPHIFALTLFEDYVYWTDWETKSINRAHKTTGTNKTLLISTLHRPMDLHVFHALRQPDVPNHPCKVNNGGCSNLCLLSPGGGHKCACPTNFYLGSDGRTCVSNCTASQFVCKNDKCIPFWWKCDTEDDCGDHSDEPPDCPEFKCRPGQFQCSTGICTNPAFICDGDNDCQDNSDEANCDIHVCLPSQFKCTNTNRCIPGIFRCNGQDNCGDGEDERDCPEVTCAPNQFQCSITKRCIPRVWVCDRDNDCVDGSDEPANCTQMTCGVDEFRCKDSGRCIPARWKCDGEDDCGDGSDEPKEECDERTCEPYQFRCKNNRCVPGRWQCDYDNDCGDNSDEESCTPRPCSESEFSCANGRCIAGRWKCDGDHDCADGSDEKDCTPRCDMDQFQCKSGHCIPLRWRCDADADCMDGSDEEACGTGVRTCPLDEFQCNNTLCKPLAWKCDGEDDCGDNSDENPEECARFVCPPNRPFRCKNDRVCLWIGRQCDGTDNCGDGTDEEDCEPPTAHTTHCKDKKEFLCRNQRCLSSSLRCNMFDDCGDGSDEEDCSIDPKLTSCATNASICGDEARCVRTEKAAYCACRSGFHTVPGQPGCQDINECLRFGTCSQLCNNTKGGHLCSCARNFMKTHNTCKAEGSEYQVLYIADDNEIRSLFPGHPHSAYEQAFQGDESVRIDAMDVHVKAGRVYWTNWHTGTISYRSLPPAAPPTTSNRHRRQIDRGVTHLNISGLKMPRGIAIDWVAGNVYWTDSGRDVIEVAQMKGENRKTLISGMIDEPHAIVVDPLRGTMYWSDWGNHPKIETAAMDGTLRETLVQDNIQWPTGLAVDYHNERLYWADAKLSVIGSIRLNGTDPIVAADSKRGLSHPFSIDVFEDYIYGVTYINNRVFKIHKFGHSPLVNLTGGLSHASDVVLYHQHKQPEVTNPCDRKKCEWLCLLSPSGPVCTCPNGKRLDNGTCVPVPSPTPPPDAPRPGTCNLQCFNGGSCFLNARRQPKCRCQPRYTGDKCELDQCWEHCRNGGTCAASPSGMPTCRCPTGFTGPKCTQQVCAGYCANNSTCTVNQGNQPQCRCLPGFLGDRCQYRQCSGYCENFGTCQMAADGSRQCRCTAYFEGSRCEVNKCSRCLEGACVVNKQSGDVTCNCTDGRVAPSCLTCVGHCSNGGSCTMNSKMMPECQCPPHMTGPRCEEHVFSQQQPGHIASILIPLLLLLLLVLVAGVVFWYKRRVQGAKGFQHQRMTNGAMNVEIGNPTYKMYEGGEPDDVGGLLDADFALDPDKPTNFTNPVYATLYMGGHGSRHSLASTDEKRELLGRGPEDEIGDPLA
UniProt P02788, residues 20-710: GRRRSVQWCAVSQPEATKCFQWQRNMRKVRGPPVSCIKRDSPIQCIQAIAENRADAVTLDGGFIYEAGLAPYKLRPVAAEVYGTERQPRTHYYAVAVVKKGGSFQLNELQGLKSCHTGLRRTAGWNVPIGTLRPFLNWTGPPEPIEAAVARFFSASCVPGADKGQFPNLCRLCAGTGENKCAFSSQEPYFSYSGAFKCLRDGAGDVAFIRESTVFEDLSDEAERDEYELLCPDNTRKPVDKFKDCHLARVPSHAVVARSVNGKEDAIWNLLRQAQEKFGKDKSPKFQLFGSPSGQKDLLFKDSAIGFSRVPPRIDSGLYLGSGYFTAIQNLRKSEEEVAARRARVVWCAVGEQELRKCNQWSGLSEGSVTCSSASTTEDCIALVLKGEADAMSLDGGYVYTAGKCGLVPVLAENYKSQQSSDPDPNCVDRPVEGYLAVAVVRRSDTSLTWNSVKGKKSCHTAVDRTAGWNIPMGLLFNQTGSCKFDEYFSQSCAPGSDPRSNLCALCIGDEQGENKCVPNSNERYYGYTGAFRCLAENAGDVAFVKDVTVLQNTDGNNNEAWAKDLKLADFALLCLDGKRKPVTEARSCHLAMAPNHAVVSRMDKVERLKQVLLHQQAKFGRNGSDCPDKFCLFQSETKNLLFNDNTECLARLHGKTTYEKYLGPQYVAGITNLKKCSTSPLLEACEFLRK
UniProt Q8WWA0, residues 19-298: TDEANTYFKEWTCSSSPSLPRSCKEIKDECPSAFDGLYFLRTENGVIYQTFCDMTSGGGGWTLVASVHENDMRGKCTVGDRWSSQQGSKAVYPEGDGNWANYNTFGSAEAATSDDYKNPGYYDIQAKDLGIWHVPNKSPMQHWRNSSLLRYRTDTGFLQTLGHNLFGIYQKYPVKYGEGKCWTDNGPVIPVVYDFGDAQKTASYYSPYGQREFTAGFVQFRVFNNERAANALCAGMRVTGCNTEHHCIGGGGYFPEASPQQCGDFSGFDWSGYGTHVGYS

Columns and labels:
[1] = target: LRP1 (low-intensity lipoprotein-receptor-related protein 1) (human (endogenous in SKOV3 and A224)) (UniProt Q07954); experiment: proximity ligation; Duolink PLA on SKOV3 and A224 cells fixed with 3.7% formaldehyde; anti-LRP1 (ab92544) and anti-LTF (sc-52048) antibodies; with or without ITLN1; controls: no primary antibody, anti-LTF plus normal rabbit IgG; only the binder purified
[2] = target: LTF (lactotransferrin) from human milk (human) (UniProt P02788); experiment: pull-down; called 'in vitro pull-down assay': LTF from human milk and recombinant human ITLN1 incubated in serum-free medium at 37 °C for 24 h; medium incubated with anti-LTF antibody (sc-52048) 2 h at 4 °C, protein A/G PLUS-agarose beads; western blot with anti-ITLN1; normal mouse IgG as control; both purified

Substance | binding [1] | binding [2]
LTF (lactotransferrin) from human milk (from UniProt P02788 20-710) | binds | 
recombinant human ITLN1 (intelectin-1, or omentin) (from UniProt Q8WWA0 19-298) |  | binds
